Reference: patent US20030198976A1
Results are given in words; binding and its absence hold for the method and conditions named. Some results given as binding are weak or reduced against the parent protein; the word gives no strength.

By UniProt entry, the sequences of proteins in these tests, tags left out. Where a name states a change or a piece, a line headed by the entry shows the natural chain unless it says otherwise.
UniProt Q8TCW9: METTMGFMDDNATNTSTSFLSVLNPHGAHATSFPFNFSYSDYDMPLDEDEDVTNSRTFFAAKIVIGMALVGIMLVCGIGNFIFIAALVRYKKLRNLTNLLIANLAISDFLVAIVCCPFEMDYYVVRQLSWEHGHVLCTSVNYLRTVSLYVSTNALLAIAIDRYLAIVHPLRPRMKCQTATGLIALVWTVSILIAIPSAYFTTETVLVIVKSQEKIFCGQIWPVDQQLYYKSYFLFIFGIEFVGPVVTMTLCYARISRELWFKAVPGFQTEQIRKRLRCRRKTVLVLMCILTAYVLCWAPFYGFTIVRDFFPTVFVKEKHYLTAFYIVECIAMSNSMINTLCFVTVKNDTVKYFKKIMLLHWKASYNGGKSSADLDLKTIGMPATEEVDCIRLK

Molecular target: HGPRBMY14 polypeptide (novel human G-protein coupled receptor) (human) (UniProt Q8TCW9)
Experiment: phage display, random peptide library

binding, binds:
LFLEAWDLSDTPHLY [Peptide modulator of HGPRBMY14, SEQ ID NO:90 (…)]
LFVDKWDLSNFWGGG [Peptide modulator of HGPRBMY14, SEQ ID NO:89 (…)]
VWGNSLIVGRWDVVG [Peptide modulator of HGPRBMY14, SEQ ID NO:91 (…)]
YFDWTEVPYLMLEEA [Peptide modulator of HGPRBMY14, SEQ ID NO:93 (…)]
VDTFFEDIPWGFVLF [Peptide modulator of HGPRBMY14, SEQ ID NO:88 (…)]
IGGVGDGLYVVSWDL [Peptide modulator of HGPRBMY14, SEQ ID NO:92 (…)]
